# Source: US4470971A (Merck & Co., Inc., priority 1982, dated 1984)
# Test: peptide synthesis
# Conditions: whole synthesis, TLC
substance,measurement,value
"N-Isobutyryl-L-histidyl-L-prolyl-L-phenylalanyl-L-histidyl-(3S,4S)-statyl-L-valyl-L-histidyl-L-glycyl amide",final HPLC purity,Greater than 99% single peak
